Measurements reported in PubChem BioAssay AID1259308 (NCATS, 2017).
The whole screen tested about 59,000 reagents; below is an unselected part. About 1,510 of all reagents (2.6%) were called active. 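Calls use total luciferase alone and ignore viability, so some active siRNAs may act by altering cell number.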 Reagents against one gene are numbered here. Not all columns of the deposit are shown.

Test: 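Candidate targets for better recombinant protein yield in mammalian cells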 (primary screen)
Cells: human HEK293 embryonic kidney cells stably expressing firefly luciferase (HEK-CMV-Luc2-Hygro)
Reagent: single siRNA against human genes, 0.8 pmol siRNA per well
Timing: 72 h
Measured: 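Reporter luminescence and viable-cell signal on separate replicate plates, given as percent of non-targeting control and median/MAD z-scores, plus per-cell luciferase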
Scale: total luciferase, z-score: higher = more reporter protein produced
Rule for the call: 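Active when the median/MAD z-score for overall luciferase is greater than 3; a gene was taken forward for validation with new siRNAs if at least two of its three siRNAs passed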
Calls: active = raised luciferase; inactive = no rise

For PCBP1-AS1 #1, how do the results read?
total luciferase, z-score: 1.81; Call: inactive

With PCBP1-AS1 #2, how do the results read?
total luciferase, z-score: -1.14; Call: inactive

Which result is listed for PCBP1-AS1 #3?
total luciferase, z-score: -1.55; Call: inactive

How did the screen score RPL13AP17 #1?
total luciferase, z-score: 0.857; Call: inactive

How did the screen score RPL13AP17 #2?
total luciferase, z-score: -0.243; Call: inactive

For RPL13AP17 #3, what does the deposit list?
total luciferase, z-score: 2; Call: inactive

Which result is listed for HOOK2 #1?
total luciferase, z-score: 3; Call: active

What did the screen give for HOOK2 #2?
total luciferase, z-score: 0.8; Call: inactive

For HOOK2 #3, how do the results read?
total luciferase, z-score: 0.192; Call: inactive

With PLET1 #1, what does the deposit list?
total luciferase, z-score: 0.356; Call: inactive

What did the screen give for PLET1 #2?
total luciferase, z-score: -1.93; Call: inactive

With PLET1 #3, what does the deposit list?
total luciferase, z-score: -1.41; Call: inactive
